PMC6691103
These are yes or no findings as the source states them, for the method shown. In cells and extracts the contact can be indirect. Some results given as binding are weak or reduced against the parent protein; the word gives no strength.

The chains behind the UniProt entries cited, without tags or fusion partners. Residues count along the entry.
UniProt P35579: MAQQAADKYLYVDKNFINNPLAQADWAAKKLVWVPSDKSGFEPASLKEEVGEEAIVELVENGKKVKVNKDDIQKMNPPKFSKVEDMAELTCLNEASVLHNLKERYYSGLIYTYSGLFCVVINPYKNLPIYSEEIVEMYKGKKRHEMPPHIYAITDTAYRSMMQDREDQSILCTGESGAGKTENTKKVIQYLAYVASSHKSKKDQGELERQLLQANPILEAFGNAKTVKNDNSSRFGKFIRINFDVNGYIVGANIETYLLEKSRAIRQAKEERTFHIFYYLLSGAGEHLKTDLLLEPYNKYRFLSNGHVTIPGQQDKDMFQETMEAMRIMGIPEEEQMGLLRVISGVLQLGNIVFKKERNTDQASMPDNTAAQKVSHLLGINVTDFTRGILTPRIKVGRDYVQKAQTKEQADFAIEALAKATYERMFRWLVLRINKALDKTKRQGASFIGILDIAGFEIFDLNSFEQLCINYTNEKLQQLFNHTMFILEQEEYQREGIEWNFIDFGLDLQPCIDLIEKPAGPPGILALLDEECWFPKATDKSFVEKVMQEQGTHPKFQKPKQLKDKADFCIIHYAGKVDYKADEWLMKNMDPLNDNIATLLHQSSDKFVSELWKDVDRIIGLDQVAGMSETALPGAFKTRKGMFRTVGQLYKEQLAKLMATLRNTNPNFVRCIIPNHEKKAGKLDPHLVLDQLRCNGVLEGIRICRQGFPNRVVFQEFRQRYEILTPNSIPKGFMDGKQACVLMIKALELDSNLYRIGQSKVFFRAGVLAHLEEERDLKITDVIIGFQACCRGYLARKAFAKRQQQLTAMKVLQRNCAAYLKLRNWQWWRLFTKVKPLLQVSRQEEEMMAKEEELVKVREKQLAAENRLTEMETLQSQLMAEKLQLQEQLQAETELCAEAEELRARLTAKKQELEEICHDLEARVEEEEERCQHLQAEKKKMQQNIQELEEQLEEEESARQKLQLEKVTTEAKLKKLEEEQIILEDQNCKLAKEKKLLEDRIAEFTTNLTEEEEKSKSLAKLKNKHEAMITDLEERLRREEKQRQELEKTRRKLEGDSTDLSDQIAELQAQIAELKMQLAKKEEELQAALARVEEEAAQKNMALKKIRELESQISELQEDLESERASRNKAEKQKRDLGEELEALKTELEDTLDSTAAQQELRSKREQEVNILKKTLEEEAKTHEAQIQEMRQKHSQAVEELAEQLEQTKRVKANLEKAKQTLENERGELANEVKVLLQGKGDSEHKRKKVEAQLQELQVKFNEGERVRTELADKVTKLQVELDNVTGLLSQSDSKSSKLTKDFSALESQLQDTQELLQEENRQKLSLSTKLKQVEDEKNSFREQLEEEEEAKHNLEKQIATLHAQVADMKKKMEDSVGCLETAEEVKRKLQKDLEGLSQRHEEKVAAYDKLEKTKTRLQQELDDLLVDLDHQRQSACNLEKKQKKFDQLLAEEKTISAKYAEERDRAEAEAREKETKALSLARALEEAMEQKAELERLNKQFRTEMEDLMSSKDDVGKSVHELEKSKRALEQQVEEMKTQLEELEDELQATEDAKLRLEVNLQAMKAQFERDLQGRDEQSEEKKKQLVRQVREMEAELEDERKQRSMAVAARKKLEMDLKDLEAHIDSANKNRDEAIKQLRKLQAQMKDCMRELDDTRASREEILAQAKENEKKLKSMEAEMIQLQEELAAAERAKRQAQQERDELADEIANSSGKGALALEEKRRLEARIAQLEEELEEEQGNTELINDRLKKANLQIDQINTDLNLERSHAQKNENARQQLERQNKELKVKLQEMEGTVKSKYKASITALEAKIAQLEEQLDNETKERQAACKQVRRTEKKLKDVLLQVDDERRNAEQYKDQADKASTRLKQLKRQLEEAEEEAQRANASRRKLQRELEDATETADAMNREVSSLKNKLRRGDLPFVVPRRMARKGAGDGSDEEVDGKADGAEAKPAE
UniProt Q2VL90, residues 47-1115: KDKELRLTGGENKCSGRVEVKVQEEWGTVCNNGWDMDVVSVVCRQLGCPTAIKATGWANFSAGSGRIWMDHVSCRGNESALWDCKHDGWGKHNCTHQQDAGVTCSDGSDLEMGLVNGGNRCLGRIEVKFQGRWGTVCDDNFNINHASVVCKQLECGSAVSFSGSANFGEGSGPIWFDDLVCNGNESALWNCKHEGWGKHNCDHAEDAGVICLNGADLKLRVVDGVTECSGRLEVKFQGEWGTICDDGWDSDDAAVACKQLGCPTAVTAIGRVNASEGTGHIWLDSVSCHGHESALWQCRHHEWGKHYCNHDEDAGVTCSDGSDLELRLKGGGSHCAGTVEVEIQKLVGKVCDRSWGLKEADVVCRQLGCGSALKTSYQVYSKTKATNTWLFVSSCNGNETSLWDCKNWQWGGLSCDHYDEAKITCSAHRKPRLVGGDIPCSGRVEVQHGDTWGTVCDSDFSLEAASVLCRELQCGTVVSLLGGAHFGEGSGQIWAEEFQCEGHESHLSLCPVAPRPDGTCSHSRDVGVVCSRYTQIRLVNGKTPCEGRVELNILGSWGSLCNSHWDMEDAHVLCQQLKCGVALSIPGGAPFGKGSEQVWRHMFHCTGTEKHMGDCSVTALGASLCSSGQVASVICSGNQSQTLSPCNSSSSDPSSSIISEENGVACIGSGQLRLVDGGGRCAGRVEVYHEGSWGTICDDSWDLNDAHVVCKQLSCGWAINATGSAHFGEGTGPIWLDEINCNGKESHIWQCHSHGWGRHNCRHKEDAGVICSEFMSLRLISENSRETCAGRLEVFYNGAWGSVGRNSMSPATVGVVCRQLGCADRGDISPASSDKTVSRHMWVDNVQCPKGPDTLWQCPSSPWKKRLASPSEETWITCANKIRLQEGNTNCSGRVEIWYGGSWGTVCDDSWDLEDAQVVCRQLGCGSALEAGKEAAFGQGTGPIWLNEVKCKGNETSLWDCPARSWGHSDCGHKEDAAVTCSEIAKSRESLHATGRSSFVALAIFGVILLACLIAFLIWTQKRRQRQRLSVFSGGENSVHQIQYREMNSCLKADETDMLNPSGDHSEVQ

Legend:
[1] = biological target: human MYH9 (hMYH9), endogenous in HEK293T (human) (UniProt P35579); assay: co-IP; lysates of HEK293T cells stably expressing CD163, SRCR1-4 or SRCR5-CT; IP with anti-myc or anti-MYH9 antibody, blot with Mab2-5G2 and anti-myc
[2] = biological target: porcine full-length CD163, stably expressed in HEK293T (HEK293T^CD163) (porcine) (UniProt Q2VL90); assay: as above

Row | Substance | binding [1] | binding [2]
1 | porcine full-length CD163, stably expressed in HEK293T (HEK293T^CD163) (from UniProt Q2VL90 47-1115) (receptor) | binds | 
2 | human MYH9 (hMYH9), endogenous in HEK293T (from UniProt P35579 1-1960) |  | binds
